PubChem BioAssay AID1224830 – NIAID, 2016
This is an unselected part of about 18,000 deposited reagents. About 2,900 of them (16%) were called active. 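Calls are made per well; low scores hint the gene aids the LPS response, high scores that it dampens it.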 Repeated entries: four replicate wells of each siRNA pool.

Test: 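Genes whose knock-down alters the TNF-alpha reporter response to LPS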 (primary screen)
Cell system: human THP-1 monocytic leukaemia cells, TNF dual-luciferase reporter clone, PMA-differentiated to macrophage-like cells
Reagent: siRNA pool against human genes, 50 nM
Time to read-out: LPS for 4 h, given about 3 days after siRNA transfection
Challenge: bacterial LPS (TLR4 ligand), 10 ng/ml
Detection: 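Ratio of firefly to renilla light, scaled to the plate median and expressed as a robust z-score per replicate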
Direction: TNF reporter robust z-score: higher = stronger TNF reporter response to LPS
Rule for the call: 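a well is active when its z-score exceeds 2.8 or falls below -1.5; control wells carry no call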

no.	Target gene	TNF reporter robust z-score	activity call
1	RIC8A (RIC8 guanine nucleotide exchange factor A)	-0.58	inactive
2	RIC8A (RIC8 guanine nucleotide exchange factor A)	0	inactive
3	RIC8A (RIC8 guanine nucleotide exchange factor A)	-0.14	inactive
4	RIC8A (RIC8 guanine nucleotide exchange factor A)	-0.07	inactive
5	SLC4A7	-1.14	inactive
6	SLC4A7	-1.34	inactive
7	SLC4A7	-1.02	inactive
8	SLC4A7	-1.33	inactive
9	OR6C70 (olfactory receptor family 6 subfamily C member 70)	-0.54	inactive
10	OR6C70 (olfactory receptor family 6 subfamily C member 70)	0.8	inactive
11	OR6C70 (olfactory receptor family 6 subfamily C member 70)	-0.11	inactive
12	OR6C70 (olfactory receptor family 6 subfamily C member 70)	-0.83	inactive
13	CTDNEP1 (CTD nuclear envelope phosphatase 1)	0.82	inactive
14	CTDNEP1 (CTD nuclear envelope phosphatase 1)	0.5	inactive
15	CTDNEP1 (CTD nuclear envelope phosphatase 1)	0.39	inactive
16	CTDNEP1 (CTD nuclear envelope phosphatase 1)	2.96	active
17	NPPB (natriuretic peptide B)	1.29	inactive
18	NPPB (natriuretic peptide B)	1.39	inactive
19	NPPB (natriuretic peptide B)	1.19	inactive
20	NPPB (natriuretic peptide B)	2.98	active
21	ASB16-AS1 (ASB16 antisense RNA 1)	-0.13	inactive
22	ASB16-AS1 (ASB16 antisense RNA 1)	0.6	inactive
23	ASB16-AS1 (ASB16 antisense RNA 1)	0.85	inactive
24	ASB16-AS1 (ASB16 antisense RNA 1)	0.47	inactive
25	TGM7 (transglutaminase 7)	0.25	inactive
26	TGM7 (transglutaminase 7)	1.26	inactive
27	TGM7 (transglutaminase 7)	0.44	inactive
28	TGM7 (transglutaminase 7)	0.91	inactive
29	ZFHX3 (zinc finger homeobox 3)	-0.39	inactive
30	ZFHX3 (zinc finger homeobox 3)	-0.72	inactive
31	ZFHX3 (zinc finger homeobox 3)	-1.01	inactive
32	ZFHX3 (zinc finger homeobox 3)	-0.09	inactive
33	OR8K5 (olfactory receptor family 8 subfamily K member 5)	0.1	inactive
34	OR8K5 (olfactory receptor family 8 subfamily K member 5)	0.41	inactive
35	OR8K5 (olfactory receptor family 8 subfamily K member 5)	0.71	inactive
36	OR8K5 (olfactory receptor family 8 subfamily K member 5)	-1.11	inactive
37	SHANK1 (SH3 and multiple ankyrin repeat domains 1)	2.96	active
38	SHANK1 (SH3 and multiple ankyrin repeat domains 1)	-0.07	inactive
39	SHANK1 (SH3 and multiple ankyrin repeat domains 1)	1.41	inactive
40	SHANK1 (SH3 and multiple ankyrin repeat domains 1)	-0.14	inactive
41	TBP (TATA-box binding protein)	2.44	inactive
42	TBP (TATA-box binding protein)	2.57	inactive
43	TBP (TATA-box binding protein)	1.26	inactive
44	TMEM59L (transmembrane protein 59 like)	-1.09	inactive
45	TMEM59L (transmembrane protein 59 like)	0.58	inactive
46	TMEM59L (transmembrane protein 59 like)	-0.04	inactive
47	TMEM59L (transmembrane protein 59 like)	-0.18	inactive
48	FOXA1 (forkhead box A1)	-1.21	inactive
49	FOXA1 (forkhead box A1)	0.08	inactive
50	FOXA1 (forkhead box A1)	-0.84	inactive
51	FOXA1 (forkhead box A1)	0.36	inactive
52	SFXN4 (sideroflexin 4)	1.13	inactive
53	SFXN4 (sideroflexin 4)	0.89	inactive
54	SFXN4 (sideroflexin 4)	1.67	inactive
55	SFXN4 (sideroflexin 4)	2.12	inactive
56	EMX1 (empty spiracles homeobox 1)	-0.15	inactive
57	EMX1 (empty spiracles homeobox 1)	-0.01	inactive
58	EMX1 (empty spiracles homeobox 1)	-1.3	inactive
59	EMX1 (empty spiracles homeobox 1)	-0.53	inactive
60	ALDOB (aldolase, fructose-bisphosphate B)	1.31	inactive
61	ALDOB (aldolase, fructose-bisphosphate B)	2.39	inactive
62	ALDOB (aldolase, fructose-bisphosphate B)	1.7	inactive
63	ALDOB (aldolase, fructose-bisphosphate B)	0.41	inactive
64	TNS4 (tensin 4)	-0.87	inactive
65	TNS4 (tensin 4)	0.52	inactive
66	TNS4 (tensin 4)	-0.24	inactive
67	TNS4 (tensin 4)	0.76	inactive
68	GAL3ST1 (galactose-3-O-sulfotransferase 1)	-1.07	inactive
69	GAL3ST1 (galactose-3-O-sulfotransferase 1)	-0.27	inactive
70	GAL3ST1 (galactose-3-O-sulfotransferase 1)	-0.1	inactive
71	GAL3ST1 (galactose-3-O-sulfotransferase 1)	-1.32	inactive
72	CASP2 (caspase 2)	0.72	inactive
73	CASP2 (caspase 2)	-1.28	inactive
74	CASP2 (caspase 2)	1.13	inactive
75	CASP2 (caspase 2)	-0.36	inactive

Part of the list above, set out differently:
{"Target gene": "OR6C70 (olfactory receptor family 6 subfamily C member 70)", "TNF reporter robust z-score": -0.11, "activity call": "inactive"}
{"Target gene": "OR6C70 (olfactory receptor family 6 subfamily C member 70)", "TNF reporter robust z-score": -0.83, "activity call": "inactive"}
{"Target gene": "CTDNEP1 (CTD nuclear envelope phosphatase 1)", "TNF reporter robust z-score": 0.82, "activity call": "inactive"}
{"Target gene": "CTDNEP1 (CTD nuclear envelope phosphatase 1)", "TNF reporter robust z-score": 0.5, "activity call": "inactive"}
{"Target gene": "CTDNEP1 (CTD nuclear envelope phosphatase 1)", "TNF reporter robust z-score": 0.39, "activity call": "inactive"}
{"Target gene": "CTDNEP1 (CTD nuclear envelope phosphatase 1)", "TNF reporter robust z-score": 2.96, "activity call": "active"}
{"Target gene": "NPPB (natriuretic peptide B)", "TNF reporter robust z-score": 1.29, "activity call": "inactive"}
{"Target gene": "NPPB (natriuretic peptide B)", "TNF reporter robust z-score": 1.39, "activity call": "inactive"}
{"Target gene": "NPPB (natriuretic peptide B)", "TNF reporter robust z-score": 1.19, "activity call": "inactive"}
{"Target gene": "NPPB (natriuretic peptide B)", "TNF reporter robust z-score": 2.98, "activity call": "active"}
{"Target gene": "ASB16-AS1 (ASB16 antisense RNA 1)", "TNF reporter robust z-score": -0.13, "activity call": "inactive"}
{"Target gene": "ASB16-AS1 (ASB16 antisense RNA 1)", "TNF reporter robust z-score": 0.6, "activity call": "inactive"}
